Three molecules from article PMC10726135 can be followed below.

These are yes or no findings as the source states them, for the method shown. In cells and extracts the contact can be indirect. These calls come from enrichment with a bait or labelling near it, and not all partners need be listed. For some of these results: A no says only that the protein was not detected with the bait.

Test [1] concerns the target P2-HNF4α (Hepatocyte Nuclear Factor 4 alpha from exon 1D), HNF4α in α7HMZ livers (mouse (endogenous in liver)). The test can be described thus: affinity purification with mass spectrometry; RIME: livers of WT and α7HMZ male mice (n=3) sacrificed at 20:30 (ZT13.5), crosslinked, IP'd with the P1/P2 HNF4α antibody, MudPIT; proteins at least 8-fold above IgG background; 8-fold difference between WT and α7HMZ taken as unique.

Test [2] concerns the target T1, P1-HNF4α (Hepatocyte Nuclear Factor 4 alpha from the P1 promoter, exon 1A), HNF4α in WT livers (mouse (endogenous in liver)) (UniProt P49698).
T1 sequence: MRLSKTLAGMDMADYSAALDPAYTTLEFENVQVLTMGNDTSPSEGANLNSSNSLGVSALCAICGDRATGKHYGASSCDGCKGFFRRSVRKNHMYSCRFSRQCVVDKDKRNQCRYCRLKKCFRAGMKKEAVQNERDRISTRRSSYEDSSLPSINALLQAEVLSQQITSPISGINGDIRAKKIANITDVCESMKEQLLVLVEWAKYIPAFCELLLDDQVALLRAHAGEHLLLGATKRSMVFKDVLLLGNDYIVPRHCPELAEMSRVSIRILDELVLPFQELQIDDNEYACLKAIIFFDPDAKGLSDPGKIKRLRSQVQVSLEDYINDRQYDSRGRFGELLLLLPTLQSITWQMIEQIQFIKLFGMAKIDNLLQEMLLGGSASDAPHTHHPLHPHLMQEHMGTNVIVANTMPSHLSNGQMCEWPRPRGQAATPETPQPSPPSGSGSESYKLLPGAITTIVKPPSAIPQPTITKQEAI
Described as above.

For test [3], the target named is T1, P1-HNF4α (Hepatocyte Nuclear Factor 4 alpha from the P1 promoter, exon 1A), HNF4α in WT livers (mouse (endogenous in liver)). As to the kind of experiment: affinity purification with mass spectrometry; RIME: livers of WT and α7HMZ male mice (n=3) sacrificed at 10:30 (ZT3.5), crosslinked, IP'd with the P1/P2 HNF4α antibody, MudPIT; proteins at least 8-fold above IgG background; 8-fold difference between WT and α7HMZ taken as unique.

The target in test [4] is T2, P1-HNF4α (Hepatocyte Nuclear Factor 4 alpha from the P1 promoter, exon 1A), HNF4α in WT livers (mouse (endogenous in liver)), P49698.
T2 chain: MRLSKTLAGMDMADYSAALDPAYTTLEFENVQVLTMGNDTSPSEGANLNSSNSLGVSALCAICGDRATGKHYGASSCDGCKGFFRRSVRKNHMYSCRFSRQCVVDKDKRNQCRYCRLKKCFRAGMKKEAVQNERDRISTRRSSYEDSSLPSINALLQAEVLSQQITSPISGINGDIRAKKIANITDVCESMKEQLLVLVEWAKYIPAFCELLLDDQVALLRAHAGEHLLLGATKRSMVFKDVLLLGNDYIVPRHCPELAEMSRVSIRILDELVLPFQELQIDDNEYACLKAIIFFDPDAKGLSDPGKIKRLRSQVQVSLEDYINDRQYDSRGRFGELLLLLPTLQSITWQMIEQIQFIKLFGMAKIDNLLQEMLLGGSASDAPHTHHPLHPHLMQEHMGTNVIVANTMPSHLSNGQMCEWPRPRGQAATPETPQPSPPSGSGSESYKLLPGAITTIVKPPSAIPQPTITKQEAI
The test is described as above. The conditions noted are these: remark: other sources report otherwise.

The target of test [5] is T2, P1-HNF4α (Hepatocyte Nuclear Factor 4 …). As to the kind of experiment: affinity purification with mass spectrometry; RIME: livers of WT and α7HMZ male mice (n=3) sacrificed at 20:30 (ZT13.5), crosslinked, IP'd with the P1/P2 HNF4α antibody, MudPIT; proteins at least 8-fold above IgG background; 8-fold difference between WT and α7HMZ taken as unique. The conditions noted are these: remark: other sources report otherwise.

Test [6] has as its target P2-HNF4α (Hepatocyte Nuclear Factor 4 alpha from exon 1D), HNF4α in α7HMZ livers (mouse (endogenous in liver)). The test can be described thus: affinity purification with mass spectrometry; RIME as in a1 and a2; the text does not tell at which time point (10:30 or 20:30) these pairs were found.
Test [7] has as its target T1, P1-HNF4α (Hepatocyte Nuclear Factor 4 alpha from the P1 promoter, exon 1A), HNF4α in WT livers (mouse (endogenous in liver)). The description is as above.

B1: ESRRG (ERRγ, Nr3b3) (protein, UniProt P62509 1-458)
chain: MDSVELCLPESFSLHYEEELLCRMSNKDRHIDSSCSSFIKTEPSSPASLTDSVNHHSPGGSSDASGSYSSTMNGHQNGLDSPPLYPSAPILGGSGPVRKLYDDCSSTIVEDPQTKCEYMLNSMPKRLCLVCGDIASGYHYGVASCEACKAFFKRTIQGNIEYSCPATNECEITKRRRKSCQACRFMKCLKVGMLKEGVRLDRVRGGRQKYKRRIDAENSPYLNPQLVQPAKKPYNKIVSHLLVAEPEKIYAMPDPTVPDSDIKALTTLCDLADRELVVIIGWAKHIPGFSTLSLADQMSLLQSAWMEILILGVVYRSLSFEDELVYADDYIMDEDQSKLAGLLDLNNAILQLVKKYKSMKLEKEEFVTLKAIALANSDSMHIEDVEAVQKLQDVLHEALQDYEAGQHMEDPRRAGKMLMTLPLLRQTSTKAVQHFYNIKLEGKVPMHKLFLEMLEAKV
Consider B1, for which the binding result in test [1] is given as “binds”; in test [2], “no binding”; in test [3] it was “no binding”.

B2: xenobiotic receptor PXR (NR1I2), O54915 1-431 (protein)
chain: MRPEESWSRVGLVQCEEADSALEEPINVEEEDGGLQICRVCGDKANGYHFNVMTCEGCKGFFRRAMKRNVRLRCPFRKGTCEITRKTRRQCQACRLRKCLESGMKKEMIMSDAAVEQRRALIKRKKREKIEAPPPGGQGLTEEQQALIQELMDAQMQTFDTTFSHFKDFRLPAVFHSGCELPEFLQASLLEDPATWSQIMKDRVPMKISLQLRGEDGSIWNYQPPSKSDGKEIIPLLPHLADVSTYMFKGVINFAKVISYFRDLPIEDQISLLKGATFEMCILRFNTMFDTETGTWECGRLAYCFEDPNGGFQKLLLDPLMKFHCMLKKLQLHKEEYVLMQAISLFSPDRPGVVQRSVVDQLQERFALTLKAYIECSRPYPAHRFLFLKIMAVLTELRSINAQQTQQLLRIQDSHPFATPLMQELFSSTDG
As for B2, the binding entry in test [4] and in test [5] was “no binding” throughout.

B3: NR0B2 (SHP) (protein, UniProt Q62227 1-260)
chain: MSSGQSGVCPCQGSAGRPTILYALLSPSPRTRPVAPASHSHCLCQQQRPVRLCAPHRTCREALDVLAKTVAFLRNLPSFCHLPHEDQRRLLECCWGPLFLLGLAQDAVTFEVAEAPVPSILKKILLEEASSGTQGAQPSDRPQPSLAAVQWLQRCLESFWSLELGPKEYAYLKGTILFNPDVPGLRASCHIAHLQQEAHWALCEVLEPWYPASQGRLARILLMASTLKNIPGTLLVDLFFRPIMGDVDITELLEDMLLLR
In the case of B3, the binding entry in test [6] and in test [7] was “binds” in each case.
